Drawing on patent US20250154213A1, “De Novo Designed Cortisol Biosensor” (University of Washington, priority 2023, published 2025), this text covers binding for 1 molecule.

The target of the experiment is T1, seq129.1_CID.
T1 sequence (chain, biotinylated (in the yeast display FACS; site not stated)): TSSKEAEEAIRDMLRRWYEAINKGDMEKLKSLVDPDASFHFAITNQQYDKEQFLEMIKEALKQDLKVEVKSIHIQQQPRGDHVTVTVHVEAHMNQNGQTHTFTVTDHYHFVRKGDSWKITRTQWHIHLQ
As to the kind of experiment: size-exclusion chromatography, 1 µM each protein, with/without 10 µM cortisol.

These are yes or no findings as the source states them, for the method shown. Some binding calls cover weakened binding; strength is not graded here.

B1: mini11 (designed binder)
chain: MSSASTLVKTFSLCMEALSIEDPEKREEVYEKARKLAEENNDPAALFLVESIKKQHEQSSSLEHHHHHH
With B1, the binding result is listed as “binds”.
